In publication doi:10.1101/2021.02.07.430161 (bioRxiv, 2021):
No constants are given. Whether binding was seen depends on the method and setting. In cells and extracts the contact can be indirect. Some binding calls cover weakened binding; strength is not graded here. Sequences can lack the tags named with a protein.

The chains behind the UniProt entries cited, without tags or fusion partners.
UniProt P11940: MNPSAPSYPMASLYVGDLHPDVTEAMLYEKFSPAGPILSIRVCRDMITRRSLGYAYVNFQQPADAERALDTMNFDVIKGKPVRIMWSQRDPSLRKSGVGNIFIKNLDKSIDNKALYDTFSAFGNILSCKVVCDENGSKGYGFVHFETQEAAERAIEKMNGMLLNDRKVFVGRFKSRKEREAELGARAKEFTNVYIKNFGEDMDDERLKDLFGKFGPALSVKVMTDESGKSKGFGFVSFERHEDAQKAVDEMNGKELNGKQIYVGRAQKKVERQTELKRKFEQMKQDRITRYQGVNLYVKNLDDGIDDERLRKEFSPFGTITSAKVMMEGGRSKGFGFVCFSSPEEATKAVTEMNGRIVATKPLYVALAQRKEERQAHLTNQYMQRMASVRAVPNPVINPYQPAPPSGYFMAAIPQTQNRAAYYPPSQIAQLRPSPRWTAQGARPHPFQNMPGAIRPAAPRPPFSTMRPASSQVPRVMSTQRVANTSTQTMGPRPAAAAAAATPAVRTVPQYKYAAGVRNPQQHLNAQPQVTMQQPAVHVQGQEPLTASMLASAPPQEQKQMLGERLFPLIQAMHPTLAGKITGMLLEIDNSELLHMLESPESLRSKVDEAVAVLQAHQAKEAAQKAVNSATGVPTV

Target: endogenous PABPC1 (HeLa cells) (human (endogenous in HeLa)) (UniProt P11940)
Assay: co-IP

binding: binds
Binder: SNLNPNAPEFHPGVPWKGLQNI [GST-super-PAM2]
